Compound in experiment [1]: ClCC(=O)N[C@@H]1CCCc2ccccc12
Briefly: log2 mean competition ratio of IA-DTB cysteine labelling (DMSO/compound) (log2 ratio); higher = stronger cysteine engagement by compound. Particulars: treatment time: 4 h, cell line lysate: HEK293T. The method, then:
(§1)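 IA-DTB competitive cysteine chemoproteomics in HEK293T RIPA lysate. Lysates were treated with compound 29 or 30 at 50 or 200 µM for 4 h, then IA-DTB (500 µM, 1 h), trypsin-digested, NeutrAvidin-enriched and analysed by diaPASEF. Competition ratio = intensity DMSO / intensity compound (n=4 treated, n=64 DMSO); binding: mean log2 CR ≥ 1 and p ≤ 0.05 plus QC filters. Target is the cysteine site.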

Protein sequences, listed by entry. Tags and fused reporters are not part of them. Lines headed by an entry give the natural chain unless they say otherwise; changes in a name come on top. Residues count along the entry.
UniProt Q9NR46: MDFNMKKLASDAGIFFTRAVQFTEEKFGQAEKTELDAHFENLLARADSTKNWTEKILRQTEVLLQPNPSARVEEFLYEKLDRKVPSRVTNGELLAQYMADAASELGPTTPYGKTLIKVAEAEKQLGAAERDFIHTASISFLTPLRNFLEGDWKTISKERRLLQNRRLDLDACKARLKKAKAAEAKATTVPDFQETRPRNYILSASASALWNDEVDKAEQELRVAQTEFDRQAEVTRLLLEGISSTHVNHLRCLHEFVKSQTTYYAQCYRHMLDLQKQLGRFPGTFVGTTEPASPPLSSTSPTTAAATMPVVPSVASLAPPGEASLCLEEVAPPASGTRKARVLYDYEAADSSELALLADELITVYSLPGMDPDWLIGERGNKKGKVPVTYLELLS
UniProt Q562F6: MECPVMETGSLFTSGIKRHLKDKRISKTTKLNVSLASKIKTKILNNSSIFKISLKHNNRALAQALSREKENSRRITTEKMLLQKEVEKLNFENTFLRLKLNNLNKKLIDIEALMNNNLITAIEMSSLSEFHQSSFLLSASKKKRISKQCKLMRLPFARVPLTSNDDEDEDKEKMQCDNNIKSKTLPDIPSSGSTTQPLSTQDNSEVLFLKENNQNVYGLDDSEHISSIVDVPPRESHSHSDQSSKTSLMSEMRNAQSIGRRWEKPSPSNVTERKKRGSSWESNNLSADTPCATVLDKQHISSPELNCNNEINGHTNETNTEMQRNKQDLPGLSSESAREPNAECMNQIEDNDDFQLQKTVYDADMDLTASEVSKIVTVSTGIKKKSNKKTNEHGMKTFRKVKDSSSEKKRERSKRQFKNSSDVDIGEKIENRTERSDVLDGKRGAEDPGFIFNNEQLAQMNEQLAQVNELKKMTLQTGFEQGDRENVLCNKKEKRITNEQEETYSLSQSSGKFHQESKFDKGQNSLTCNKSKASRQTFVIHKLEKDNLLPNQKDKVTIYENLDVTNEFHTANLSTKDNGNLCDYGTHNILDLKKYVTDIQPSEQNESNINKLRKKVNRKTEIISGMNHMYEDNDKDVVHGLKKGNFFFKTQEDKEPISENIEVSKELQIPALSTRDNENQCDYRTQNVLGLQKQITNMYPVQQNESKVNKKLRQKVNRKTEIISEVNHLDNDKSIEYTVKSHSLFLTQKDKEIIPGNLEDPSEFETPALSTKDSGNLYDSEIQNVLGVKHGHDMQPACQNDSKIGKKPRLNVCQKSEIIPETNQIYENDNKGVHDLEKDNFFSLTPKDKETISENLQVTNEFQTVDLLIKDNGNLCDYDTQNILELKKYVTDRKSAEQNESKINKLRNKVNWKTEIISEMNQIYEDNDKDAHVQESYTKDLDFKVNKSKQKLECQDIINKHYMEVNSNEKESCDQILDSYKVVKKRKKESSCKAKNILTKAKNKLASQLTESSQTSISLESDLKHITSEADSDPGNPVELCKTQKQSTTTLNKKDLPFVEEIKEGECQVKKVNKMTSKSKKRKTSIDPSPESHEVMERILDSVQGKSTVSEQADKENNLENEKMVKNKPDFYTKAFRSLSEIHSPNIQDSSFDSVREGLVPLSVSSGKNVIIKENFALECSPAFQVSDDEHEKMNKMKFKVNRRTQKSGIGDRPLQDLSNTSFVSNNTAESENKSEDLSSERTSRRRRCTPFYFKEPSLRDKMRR
UniProt Q13530: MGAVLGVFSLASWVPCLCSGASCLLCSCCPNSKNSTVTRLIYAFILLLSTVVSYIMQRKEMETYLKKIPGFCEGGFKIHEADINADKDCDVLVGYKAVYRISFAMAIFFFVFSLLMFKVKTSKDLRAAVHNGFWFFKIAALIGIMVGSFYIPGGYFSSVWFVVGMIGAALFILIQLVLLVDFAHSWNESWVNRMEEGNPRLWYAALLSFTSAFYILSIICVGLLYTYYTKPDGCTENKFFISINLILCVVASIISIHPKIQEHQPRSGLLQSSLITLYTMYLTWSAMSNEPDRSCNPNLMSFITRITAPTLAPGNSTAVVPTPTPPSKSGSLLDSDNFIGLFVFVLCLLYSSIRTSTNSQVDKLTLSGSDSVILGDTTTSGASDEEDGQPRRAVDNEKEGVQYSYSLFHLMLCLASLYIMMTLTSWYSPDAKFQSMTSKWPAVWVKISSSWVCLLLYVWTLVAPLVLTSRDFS
UniProt Q96LD8, 64-84: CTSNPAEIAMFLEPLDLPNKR
UniProt Q587I9: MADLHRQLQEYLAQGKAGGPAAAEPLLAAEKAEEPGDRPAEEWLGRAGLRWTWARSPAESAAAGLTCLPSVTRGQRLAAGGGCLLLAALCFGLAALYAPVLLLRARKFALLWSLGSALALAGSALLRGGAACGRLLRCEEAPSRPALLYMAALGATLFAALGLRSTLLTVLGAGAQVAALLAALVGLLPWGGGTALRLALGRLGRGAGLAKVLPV
UniProt Q9H7N4, 981-1000: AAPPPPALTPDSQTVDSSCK
UniProt O94885: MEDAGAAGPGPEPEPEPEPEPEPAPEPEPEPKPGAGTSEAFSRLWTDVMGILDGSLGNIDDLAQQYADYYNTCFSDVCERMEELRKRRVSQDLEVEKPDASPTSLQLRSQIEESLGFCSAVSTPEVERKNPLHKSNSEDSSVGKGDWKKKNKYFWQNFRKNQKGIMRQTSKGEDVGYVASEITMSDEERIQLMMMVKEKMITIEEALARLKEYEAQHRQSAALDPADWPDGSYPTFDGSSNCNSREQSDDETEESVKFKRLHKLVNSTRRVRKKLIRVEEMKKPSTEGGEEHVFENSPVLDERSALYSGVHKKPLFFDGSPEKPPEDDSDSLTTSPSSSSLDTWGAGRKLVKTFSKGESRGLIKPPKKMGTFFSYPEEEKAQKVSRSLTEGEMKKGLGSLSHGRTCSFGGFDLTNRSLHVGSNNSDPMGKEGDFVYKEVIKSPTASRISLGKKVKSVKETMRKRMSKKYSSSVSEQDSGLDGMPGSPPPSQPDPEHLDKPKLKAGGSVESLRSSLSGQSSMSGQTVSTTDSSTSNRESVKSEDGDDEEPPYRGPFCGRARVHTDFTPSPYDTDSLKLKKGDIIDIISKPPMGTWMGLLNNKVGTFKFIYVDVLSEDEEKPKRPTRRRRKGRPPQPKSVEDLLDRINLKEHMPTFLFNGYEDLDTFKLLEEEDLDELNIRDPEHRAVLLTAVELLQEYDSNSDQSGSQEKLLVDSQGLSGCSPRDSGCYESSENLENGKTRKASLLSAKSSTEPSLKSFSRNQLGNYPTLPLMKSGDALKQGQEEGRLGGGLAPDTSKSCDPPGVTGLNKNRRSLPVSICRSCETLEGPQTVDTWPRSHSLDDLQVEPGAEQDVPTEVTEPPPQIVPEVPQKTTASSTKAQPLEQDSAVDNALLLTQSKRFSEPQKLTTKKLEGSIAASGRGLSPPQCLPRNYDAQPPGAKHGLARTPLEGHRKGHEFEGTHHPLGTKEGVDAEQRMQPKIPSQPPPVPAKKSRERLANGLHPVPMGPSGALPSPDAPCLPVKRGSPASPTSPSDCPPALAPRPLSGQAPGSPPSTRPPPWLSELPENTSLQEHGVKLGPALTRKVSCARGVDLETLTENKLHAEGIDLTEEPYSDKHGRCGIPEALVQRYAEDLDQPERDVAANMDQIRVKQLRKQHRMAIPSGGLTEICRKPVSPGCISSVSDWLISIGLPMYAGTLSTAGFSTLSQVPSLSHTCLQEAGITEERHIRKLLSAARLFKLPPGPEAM
UniProt Q15464: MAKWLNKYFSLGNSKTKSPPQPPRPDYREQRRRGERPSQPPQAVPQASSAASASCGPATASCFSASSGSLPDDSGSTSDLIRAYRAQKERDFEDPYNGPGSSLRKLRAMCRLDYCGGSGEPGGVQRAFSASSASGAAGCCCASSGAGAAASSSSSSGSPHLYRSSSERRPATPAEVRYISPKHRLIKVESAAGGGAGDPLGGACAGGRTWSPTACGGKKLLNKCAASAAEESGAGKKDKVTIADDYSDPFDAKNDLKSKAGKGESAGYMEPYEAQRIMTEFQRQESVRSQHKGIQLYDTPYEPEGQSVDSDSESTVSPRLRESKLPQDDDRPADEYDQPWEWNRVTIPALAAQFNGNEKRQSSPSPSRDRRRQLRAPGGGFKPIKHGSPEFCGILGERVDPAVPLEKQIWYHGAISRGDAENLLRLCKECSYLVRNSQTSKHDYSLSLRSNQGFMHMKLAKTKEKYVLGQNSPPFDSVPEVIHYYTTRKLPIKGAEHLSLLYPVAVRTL
UniProt Q96BR1: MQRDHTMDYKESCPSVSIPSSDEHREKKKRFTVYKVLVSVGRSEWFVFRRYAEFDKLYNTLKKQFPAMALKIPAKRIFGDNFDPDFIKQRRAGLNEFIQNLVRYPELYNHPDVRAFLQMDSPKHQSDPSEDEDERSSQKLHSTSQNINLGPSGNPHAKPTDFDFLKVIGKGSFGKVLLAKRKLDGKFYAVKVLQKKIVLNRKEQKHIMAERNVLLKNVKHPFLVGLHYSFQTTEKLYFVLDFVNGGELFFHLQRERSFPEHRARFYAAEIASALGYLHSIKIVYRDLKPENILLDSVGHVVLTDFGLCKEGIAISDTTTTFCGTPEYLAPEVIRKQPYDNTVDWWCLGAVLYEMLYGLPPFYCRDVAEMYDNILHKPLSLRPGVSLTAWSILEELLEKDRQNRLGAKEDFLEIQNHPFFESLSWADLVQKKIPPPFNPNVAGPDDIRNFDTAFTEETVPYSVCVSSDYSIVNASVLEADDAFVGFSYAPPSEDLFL
UniProt Q96ST3: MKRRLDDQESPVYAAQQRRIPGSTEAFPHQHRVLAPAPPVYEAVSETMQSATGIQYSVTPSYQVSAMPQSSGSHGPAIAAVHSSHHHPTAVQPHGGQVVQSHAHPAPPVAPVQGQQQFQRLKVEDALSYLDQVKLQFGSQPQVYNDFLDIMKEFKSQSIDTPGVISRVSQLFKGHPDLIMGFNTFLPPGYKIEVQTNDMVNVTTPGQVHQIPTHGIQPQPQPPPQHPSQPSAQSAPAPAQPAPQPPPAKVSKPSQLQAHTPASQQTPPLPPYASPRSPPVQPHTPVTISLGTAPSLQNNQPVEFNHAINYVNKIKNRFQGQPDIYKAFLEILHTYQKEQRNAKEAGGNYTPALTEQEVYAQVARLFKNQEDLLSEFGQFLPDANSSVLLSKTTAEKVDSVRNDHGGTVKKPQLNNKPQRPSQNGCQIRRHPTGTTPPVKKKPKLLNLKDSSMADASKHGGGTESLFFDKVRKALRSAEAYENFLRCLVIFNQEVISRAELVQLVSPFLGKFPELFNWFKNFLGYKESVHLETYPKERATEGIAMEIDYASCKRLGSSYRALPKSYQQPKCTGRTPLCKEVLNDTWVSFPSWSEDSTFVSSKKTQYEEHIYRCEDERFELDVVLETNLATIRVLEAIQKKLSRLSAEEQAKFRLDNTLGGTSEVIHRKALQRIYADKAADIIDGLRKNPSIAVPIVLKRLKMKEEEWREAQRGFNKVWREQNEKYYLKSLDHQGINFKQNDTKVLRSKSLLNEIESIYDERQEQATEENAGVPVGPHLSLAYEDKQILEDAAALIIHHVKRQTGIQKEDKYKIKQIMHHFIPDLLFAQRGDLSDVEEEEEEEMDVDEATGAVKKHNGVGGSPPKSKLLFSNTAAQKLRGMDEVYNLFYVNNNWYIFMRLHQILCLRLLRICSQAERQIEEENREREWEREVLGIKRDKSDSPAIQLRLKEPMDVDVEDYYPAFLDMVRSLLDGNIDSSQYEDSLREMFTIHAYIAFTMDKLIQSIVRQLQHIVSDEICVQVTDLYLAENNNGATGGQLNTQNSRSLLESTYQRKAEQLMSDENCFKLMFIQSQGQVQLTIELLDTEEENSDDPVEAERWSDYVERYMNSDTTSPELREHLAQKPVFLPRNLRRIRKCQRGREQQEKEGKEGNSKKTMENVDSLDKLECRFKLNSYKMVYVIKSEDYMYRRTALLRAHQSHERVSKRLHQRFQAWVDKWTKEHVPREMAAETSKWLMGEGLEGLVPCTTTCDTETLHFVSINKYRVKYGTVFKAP
UniProt Q9Y3Z3: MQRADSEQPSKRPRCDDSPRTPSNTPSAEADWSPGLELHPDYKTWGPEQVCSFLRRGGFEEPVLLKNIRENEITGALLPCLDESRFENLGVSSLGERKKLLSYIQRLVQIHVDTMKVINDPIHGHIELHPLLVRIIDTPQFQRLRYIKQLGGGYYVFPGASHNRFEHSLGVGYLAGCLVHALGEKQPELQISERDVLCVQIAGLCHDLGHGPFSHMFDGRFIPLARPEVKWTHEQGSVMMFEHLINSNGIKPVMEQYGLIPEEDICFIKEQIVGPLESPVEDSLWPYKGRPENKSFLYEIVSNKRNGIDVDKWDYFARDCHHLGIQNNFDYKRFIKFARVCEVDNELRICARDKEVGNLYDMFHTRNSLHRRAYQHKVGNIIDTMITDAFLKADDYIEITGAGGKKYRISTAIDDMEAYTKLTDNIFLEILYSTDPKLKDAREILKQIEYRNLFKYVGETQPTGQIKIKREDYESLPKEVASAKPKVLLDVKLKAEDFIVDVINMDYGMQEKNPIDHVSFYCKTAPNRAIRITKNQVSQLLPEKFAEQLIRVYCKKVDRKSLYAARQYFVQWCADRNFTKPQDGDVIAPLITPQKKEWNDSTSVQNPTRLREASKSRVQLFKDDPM
UniProt Q99590, 560-583: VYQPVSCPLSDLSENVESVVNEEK

Compound in experiment [2]: ClCC(=O)N[C@H]1CCCc2ccccc12
The description is as above. Particulars: treatment time: 4 h, cell line lysate: HEK293T. The method, then: as §1

These results are taken from the supplement of paper PMC11732987, “Enantioselective OTUD7B fragment discovery through chemoproteomics screening and high-throughput optimisation” (Communications Chemistry, 2025).

This is one part of the list. The data scatter; read single values as rough.

On to SH3GLB2 C267 (UniProt Q9NR46), for which the “log2 mean competition ratio” value in experiment [1] (50 µM) was 0.268; in experiment [1] (200 µM) it was -0.0721; in experiment [2] (50 µM) it was 0.209; in experiment [2] (200 µM), -0.313.

As to SCML2 C350 (UniProt Q9UQR0), the “log2 mean competition ratio” value is 0.159 in experiment [1] (50 µM), -0.195 in experiment [1] (200 µM), -0.147 in experiment [2] (50 µM) and -0.177 in experiment [2] (200 µM).

For SERPINB6 C100, the “log2 mean competition ratio” value in experiment [1] (50 µM) was 0.651; in experiment [1] (200 µM), 0.143; in experiment [2] (50 µM) it was 0.00885; in experiment [2] (200 µM), 0.337.

Turning to SEC24B C1103 (UniProt O95487), the “log2 mean competition ratio” value in experiment [1] (50 µM) was found to be 0.22; in experiment [1] (200 µM), 0.0454; in experiment [2] (50 µM), 0.509; in experiment [2] (200 µM) it was 0.143.

Take SGO2 C528 (UniProt Q562F6): the “log2 mean competition ratio” value turned out to be 0.0531 in experiment [1] (50 µM), 0.128 in experiment [1] (200 µM), 0.428 in experiment [2] (50 µM) and 0.0502 in experiment [2] (200 µM).

As for SERINC3 C89 (UniProt Q13530), the “log2 mean competition ratio” value in experiment [1] (50 µM) is -0.129; in experiment [1] (200 µM), 0.467; in experiment [2] (50 µM), -0.43; in experiment [2] (200 µM) it was -0.114.

As for SH2D5 C397, the “log2 mean competition ratio” value in experiment [1] (50 µM) was -0.183; in experiment [1] (200 µM), 0.909; in experiment [2] (50 µM), -0.151; in experiment [2] (200 µM), 0.14.

For the target SENP8 C64 (UniProt Q96LD8), the “log2 mean competition ratio” value is 0.132 in experiment [1] (50 µM), -0.0883 in experiment [1] (200 µM), 0.152 in experiment [2] (50 µM) and -0.0455 in experiment [2] (200 µM).

For SFT2D3 C67 (UniProt Q587I9), the “log2 mean competition ratio” value in experiment [1] (50 µM) was -0.429; in experiment [1] (200 µM) it was -0.248; in experiment [2] (50 µM), -0.208; in experiment [2] (200 µM), -0.11.

Consider SEPTIN2 C111, for which the “log2 mean competition ratio” value is -0.367 in experiment [1] (50 µM), 0.0298 in experiment [1] (200 µM), -0.0189 in experiment [2] (50 µM) and 0.142 in experiment [2] (200 µM).

As to SHPK C105 (UniProt Q9UHJ6), the “log2 mean competition ratio” value in experiment [1] (50 µM) is -0.277; in experiment [1] (200 µM) it was 0.029; in experiment [2] (50 µM), 0.111; in experiment [2] (200 µM), 0.168.

For SCARF2 C122, the “log2 mean competition ratio” value is -0.33 in experiment [1] (50 µM), 0.412 in experiment [1] (200 µM), -0.153 in experiment [2] (50 µM) and 0.602 in experiment [2] (200 µM).

For SGO2 C176 (UniProt Q562F6), the “log2 mean competition ratio” value in experiment [1] (50 µM) was -0.151; in experiment [1] (200 µM), 0.148; in experiment [2] (50 µM), -0.267; in experiment [2] (200 µM), 0.0747.

In the case of SCAF1 C362 (UniProt Q9H7N4), the “log2 mean competition ratio” value in experiment [1] (50 µM) was -0.225; in experiment [1] (200 µM) it was 0.17; in experiment [2] (50 µM), -0.129; in experiment [2] (200 µM), 0.172.

Take SASH1 C927 (UniProt O94885): the “log2 mean competition ratio” value was 0.303 in experiment [1] (50 µM), -0.242 in experiment [1] (200 µM), 0.308 in experiment [2] (50 µM) and -0.0611 in experiment [2] (200 µM).

With SHB C392 (UniProt Q15464), the “log2 mean competition ratio” value was 0.163 in experiment [1] (50 µM), 0.284 in experiment [1] (200 µM), -0.138 in experiment [2] (50 µM) and 0.0255 in experiment [2] (200 µM).

As for SETDB1 C53 (UniProt Q15047), the “log2 mean competition ratio” value was -0.117 in experiment [1] (50 µM), 0.285 in experiment [1] (200 µM), -0.0509 in experiment [2] (50 µM) and 0.223 in experiment [2] (200 µM).

Consider SGK3 C13 (UniProt Q96BR1), for which the “log2 mean competition ratio” value in experiment [1] (50 µM) is -0.172; in experiment [1] (200 µM), -0.291; in experiment [2] (50 µM), -0.32; in experiment [2] (200 µM), -0.245.

For SIN3A C551 (UniProt Q96ST3), the “log2 mean competition ratio” value in experiment [1] (50 µM) was -0.134; in experiment [1] (200 µM) it was 0.407; in experiment [2] (50 µM), 0.0185; in experiment [2] (200 µM), 0.169.

Turning to SAMHD1 C80 (UniProt Q9Y3Z3), the “log2 mean competition ratio” value in experiment [1] (50 µM) is -0.186; in experiment [1] (200 µM) it was -0.0427; in experiment [2] (50 µM), -0.345; in experiment [2] (200 µM), 0.0524.

As for SIN3A C910 (UniProt Q96ST3), the “log2 mean competition ratio” value in experiment [1] (50 µM) is -0.22; in experiment [1] (200 µM), 0.0292; in experiment [2] (50 µM) it was -0.492; in experiment [2] (200 µM) it was 0.0672.

Take SCAF11 C566 (UniProt Q99590): the “log2 mean competition ratio” value is 0.114 in experiment [1] (50 µM), 0.0289 in experiment [1] (200 µM), 0.178 in experiment [2] (50 µM) and -0.187 in experiment [2] (200 µM).

For SCAF1 C999 (UniProt Q9H7N4), the “log2 mean competition ratio” value in experiment [1] (50 µM) was -0.222; in experiment [1] (200 µM) it was 0.219; in experiment [2] (50 µM), -0.241; in experiment [2] (200 µM), 0.202.
